Results: patent publication US8273778B2, “Inhibitors of UDP-galactopyranose mutase thwart mycobacterial growth” (Wisconsin Alumni Research Foundation, priority 2008, dated 2012)
The name of at least one read-out is uncertain.

Amino acid sequences for entries named in this document (tags omitted). A change or cut given only in a name is not applied to a line headed by its entry. Residues count along the entry.
UniProt P9WIQ1: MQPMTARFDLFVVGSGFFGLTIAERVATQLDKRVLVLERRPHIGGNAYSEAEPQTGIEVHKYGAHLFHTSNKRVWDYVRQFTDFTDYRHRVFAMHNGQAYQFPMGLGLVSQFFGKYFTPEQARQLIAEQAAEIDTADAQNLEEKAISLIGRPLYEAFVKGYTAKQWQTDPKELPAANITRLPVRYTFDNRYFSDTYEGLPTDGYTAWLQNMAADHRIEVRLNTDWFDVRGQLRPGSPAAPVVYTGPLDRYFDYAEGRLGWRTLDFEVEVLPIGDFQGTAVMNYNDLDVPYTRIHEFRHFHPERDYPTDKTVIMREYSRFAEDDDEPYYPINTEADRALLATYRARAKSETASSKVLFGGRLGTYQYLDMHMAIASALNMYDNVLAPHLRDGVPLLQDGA
UniProt Q48485, 24-384: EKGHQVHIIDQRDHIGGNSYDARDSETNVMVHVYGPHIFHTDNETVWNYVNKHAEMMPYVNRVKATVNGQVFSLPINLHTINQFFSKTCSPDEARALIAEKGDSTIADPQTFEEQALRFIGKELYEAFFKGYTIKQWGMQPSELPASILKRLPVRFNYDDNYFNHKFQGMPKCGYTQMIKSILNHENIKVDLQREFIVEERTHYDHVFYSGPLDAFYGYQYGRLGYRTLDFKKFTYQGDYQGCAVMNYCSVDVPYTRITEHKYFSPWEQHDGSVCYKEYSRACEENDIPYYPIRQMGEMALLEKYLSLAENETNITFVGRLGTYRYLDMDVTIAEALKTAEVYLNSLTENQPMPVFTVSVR

Columns and labels:
[1] = target: UGM from Mycobacterium tuberculosis (UGMmyco) (Mycobacterium tuberculosis, UniProt P9WIQ1); assay: Fluorescence polarization binding / inhibition assay, UGMmyco; settings: used to convert Kapp to Kd, read-out: KI, binding affinity of the fluorescent probe to UGM
Method: (§1) Serial dilutions of dialyzed UGM (maximum concentration was typically 30 μM) was incubated with 15 nM of fluorescent compounds 5a-5f, 6 or 11 in 50 mM sodium phosphate buffer, pH 7.0 at 25° C. Final volumes were 30 μL in 384 well black microtiter plates (Costar). Fluorescence polarization was analyzed using a Wallac EnVision plate reader. Data were fit to y=m1+((m2−m1)*x^m3)/(m4^m3+x^m3); m2=maximum FP signal, m1=minimum FP signal, m3=slope, m4=binding constant (KaleidaGraph, Synergy Software).
The fluorescence polarization inhibition assay was performed as previously described (22). Reactions contained 580 nM UGMmyco or 500 nM UGMkleb and 15 nM of the fluorescent probe 5c in 50 mM sodium phosphate buffer, pH 7.0 at 25° C. Final volumes were 30 μL in 384 well black microtiter plates (Costar). Serial dilutions of UDP, 4d or 7 were added to the wells. Fluorescence polarization was analyzed using a Wallac EnVision plate reader. Data were fit to y=m1+((m2−m1)*x^m3)/(m4^m3+x^m3); m2=maximum FP signal, m1=minimum FP signal, m3=slope, m4=apparent binding constant (KaleidaGraph, Synergy Software). […]. FIGS. 13A and 13B are graphs illustrating determination of Kd for compound II for UGMmyco (FIG. 13A) and UGMkleb (FIG. 13B).

[2] = target: UGM from Klebsiella pneumoniae (UGMkleb) (Klebsiella pneumoniae, UniProt Q48485); assay: Fluorescence polarization binding / inhibition assay, UGMkleb; settings: used to convert Kapp to Kd, read-out: KI, binding affinity of the fluorescent probe to UGM
Method: as §1
The fluorescence polarization inhibition assay was performed as previously described (22). Reactions contained 580 nM UGMmyco or 500 nM UGMkleb and 15 nM of the fluorescent probe 5c in 50 mM sodium phosphate buffer, pH 7.0 at 25° C. Final volumes were 30 μL in 384 well black microtiter plates (Costar). Serial dilutions of UDP, 4d or 7 were added to the wells. Fluorescence polarization was analyzed using a Wallac EnVision plate reader. Data were fit to y=m1+((m2−m1)*x^m3)/(m4^m3+x^m3); m2=maximum FP signal, m1=minimum FP signal, m3=slope, m4=apparent binding constant (KaleidaGraph, Synergy Software). To determine Kd values, the apparent binding constant was then subjected to Kapp=Kd(1+(I)/KI), where I=concentration of the fluorescent probe and KI=binding affinity of the fluorescent probe to UGM. […]

Substance: UDP-hexanolamine-fluorescein conjugate [Compound 5c]
- Ki [1]: 160 nM
- Ki [2]: 100 nM
